# Source: paper doi:10.1101/2025.03.27.645713
# Construct, isoform or probe ends are uncertain for at least one entry.
# Tested on: aCcr1
# Assay: EMSA
# Settings: 5 mM MgCl2, 0, 0.5 and 1 (unit lost in print, probably uM) aCcr1
sequence,measurement,value
"AGATAATACTCCGTTTTTTCTCTAACAATAGATTAACGTTAAAGAAGCCTGCTAACGATTATATTTTATTCTGCTAAGTATTACCGTAGAGTGATCTGTA (double strand) [Pcran1 (cran1 promoter probe, 100 bp)]",binding result,binds
